Data as given in PubChem BioAssay AID1224830 (NIAID, 2016).

Aim: 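Genes whose knock-down alters the TNF-alpha reporter response to LPS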 (primary screen)
System: human THP-1 monocytic leukaemia cells, TNF dual-luciferase reporter clone, PMA-differentiated to macrophage-like cells
Knock-down reagent: siRNA pool against human genes, 50 nM
Time to read-out: LPS for 4 h, given about 3 days after siRNA transfection
Treatment: bacterial LPS (TLR4 ligand), 10 ng/ml
Measured: 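Ratio of firefly to renilla light, scaled to the plate median and expressed as a robust z-score per replicate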
Reading the numbers: TNF reporter robust z-score: higher = stronger TNF reporter response to LPS
Active means: 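Each well counts as active if its z-score is over 2.8 or under -1.5; controls are left without a call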
Here is a random part of about 18,000 deposited reagents. Of all reagents, about 2,900 (16%) are marked active. 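Calls are made per well; low scores hint the gene aids the LPS response, high scores that it dampens it.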 Repeated entries: four replicate wells of each siRNA pool. No sequences are given here.

no.	gene symbol	TNF reporter robust z-score	Call
1	CCNQ	4.24	active
2	CCNQ	3.89	active
3	CCNQ	1.64	inactive
4	CCNQ	3.32	active
5	H2AC14	0.65	inactive
6	H2AC14	0.44	inactive
7	H2AC14	0.99	inactive
8	H2AC14	0.92	inactive
9	DDX43	-1.14	inactive
10	DDX43	-0.7	inactive
11	DDX43	-1.02	inactive
12	DDX43	0.42	inactive
13	LGALS3BP	-1.21	inactive
14	LGALS3BP	-0.92	inactive
15	LGALS3BP	-1.25	inactive
16	LGALS3BP	-0.27	inactive
17	PRMT5	2.04	inactive
18	PRMT5	0.93	inactive
19	PRMT5	-0.27	inactive
20	PRMT5	0.72	inactive
21	DOK2	0.55	inactive
22	DOK2	0.62	inactive
23	DOK2	0.43	inactive
24	DOK2	0.72	inactive
25	REG4	-1.25	inactive
26	REG4	-1.05	inactive
27	REG4	-0.94	inactive
28	REG4	-1.09	inactive
29	MRPS7	-0.92	inactive
30	MRPS7	0.69	inactive
31	MRPS7	-0.09	inactive
32	MRPS7	-0.17	inactive
33	ITM2A	2.9	active
34	ITM2A	1.57	inactive
35	ITM2A	2.36	inactive
36	ITM2A	1.23	inactive
37	LOC653978 (retired record)	1.13	inactive
38	LOC653978 (retired record)	-0.04	inactive
39	LOC653978 (retired record)	1.84	inactive
40	LOC653978 (retired record)	1.42	inactive
41	CRYZ	-1.09	inactive
42	CRYZ	-0.39	inactive
43	CRYZ	-0.47	inactive
44	CRYZ	-1.06	inactive
45	TFB2M	5.1	active
46	TFB2M	0.34	inactive
47	TFB2M	0.36	inactive
48	TFB2M	1.01	inactive
49	COX7C	-0.56	inactive
50	COX7C	0.25	inactive
51	COX7C	-0.43	inactive
52	COX7C	0.27	inactive
53	BLTP3A	-0.22	inactive
54	BLTP3A	-0.09	inactive
55	BLTP3A	-0.29	inactive
56	BLTP3A	0.09	inactive

Records listed above called active, once more:
gene symbol	TNF reporter robust z-score	Call
CCNQ	4.24	active
CCNQ	3.89	active
CCNQ	3.32	active
ITM2A	2.9	active
TFB2M	5.1	active

The list goes on:
no.	gene symbol	TNF reporter robust z-score	Call
57	ENPP1	0	inactive
58	ENPP1	-0.03	inactive
59	ENPP1	-0.62	inactive
60	ENPP1	0.25	inactive
61	NLRC5	0.71	inactive
62	NLRC5	0.11	inactive
63	NLRC5	0.94	inactive
64	NLRC5	-0.47	inactive
65	FBXW2	1.51	inactive
66	FBXW2	0.26	inactive
67	FBXW2	1.72	inactive
68	FBXW2	-1.24	inactive
69	RCAN2	-1.81	active
70	RCAN2	-1.23	inactive
71	RCAN2	-1.93	active
72	RCAN2	-1.48	inactive
73	MTNR1A	-1.22	inactive
74	MTNR1A	0.43	inactive
75	MTNR1A	-0.71	inactive
76	MTNR1A	0.27	inactive
77	SRSF11	2.25	inactive
78	SRSF11	2.21	inactive
79	SRSF11	1.27	inactive
80	SRSF11	2.72	inactive
81	XAGE3	-1.01	inactive
82	XAGE3	-0.27	inactive
83	XAGE3	-1	inactive
84	XAGE3	-0.21	inactive
85	SPSB2	1.35	inactive
86	SPSB2	2.19	inactive
87	SPSB2	0.7	inactive
88	SPSB2	1.6	inactive
89	CST8	2.05	inactive
90	CST8	0.2	inactive
91	CST8	0.37	inactive
92	CST8	0.25	inactive
93	TPTE	2.06	inactive
94	TPTE	1.95	inactive
95	TPTE	2.45	inactive
96	TPTE	3.88	active
97	DAZAP1	-1.5	inactive
98	DAZAP1	-0.06	inactive
99	DAZAP1	-0.34	inactive
100	DAZAP1	-0.84	inactive
101	SS18L2	-1.01	inactive
102	SS18L2	-1.19	inactive
103	SS18L2	-0.81	inactive
104	SS18L2	-0.26	inactive
105	KCNS3	0.65	inactive
106	KCNS3	0.26	inactive
107	KCNS3	0.84	inactive
108	KCNS3	3.64	active
109	PAGR1	-0.77	inactive
110	PAGR1	0.4	inactive
111	PAGR1	-0.27	inactive
112	PAGR1	-0.72	inactive
